No constants are given. Whether binding was seen depends on the method and setting. Some entries that bind do so weakly or less than the wild type.

The target in this assay is T1, human Kv2.1 (human) (UniProt Q14721).
T1 sequence (looked up): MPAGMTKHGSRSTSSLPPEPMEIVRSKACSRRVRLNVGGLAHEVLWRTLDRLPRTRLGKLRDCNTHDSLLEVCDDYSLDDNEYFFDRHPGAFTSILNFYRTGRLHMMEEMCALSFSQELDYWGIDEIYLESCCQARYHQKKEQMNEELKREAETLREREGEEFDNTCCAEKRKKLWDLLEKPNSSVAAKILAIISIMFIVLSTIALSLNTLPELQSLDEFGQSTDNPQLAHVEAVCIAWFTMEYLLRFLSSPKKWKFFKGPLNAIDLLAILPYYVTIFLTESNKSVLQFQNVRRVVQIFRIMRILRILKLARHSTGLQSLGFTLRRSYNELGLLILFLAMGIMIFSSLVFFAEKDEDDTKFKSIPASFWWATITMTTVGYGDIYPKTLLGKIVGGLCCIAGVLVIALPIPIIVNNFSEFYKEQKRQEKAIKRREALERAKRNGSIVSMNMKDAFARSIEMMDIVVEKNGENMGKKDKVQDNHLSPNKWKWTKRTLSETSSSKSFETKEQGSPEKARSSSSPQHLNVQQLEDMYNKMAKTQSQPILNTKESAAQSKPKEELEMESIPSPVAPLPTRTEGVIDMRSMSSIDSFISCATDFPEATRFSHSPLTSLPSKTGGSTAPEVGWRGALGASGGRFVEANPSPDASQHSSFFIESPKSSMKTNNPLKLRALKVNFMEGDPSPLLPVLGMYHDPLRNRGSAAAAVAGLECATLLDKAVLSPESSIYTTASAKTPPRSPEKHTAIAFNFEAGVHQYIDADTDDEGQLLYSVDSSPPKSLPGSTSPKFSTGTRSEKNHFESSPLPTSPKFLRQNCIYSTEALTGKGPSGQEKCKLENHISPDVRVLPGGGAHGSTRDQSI
Briefly: clone from the library concentrated 5 times by the PERISS method (Strept-tag capture of peptide / Kv2.1 / spheroplast complexes on streptavidin magnetic beads); no effect on the current in patch clamp. For orientation: The patch-clamp technique gives a direct electrical read-out from membranes.

Consider “Clone 32 peptide (SEQ ID NO: 8), from the GTx1-15-based ODA library (from UniProt P0AEG6 21-236)”, for which the binding result was “binds”.

These data come from patent US20230272371A1, “METHOD FOR SCREENING FOR POLYPEPTIDE THAT ACTS ON TARGET PROTEIN” (NATIONAL INSTITUTE OF ADVANCED INDUSTRIAL SCIENCE AND …, priority 2020, published 2023).
